Data published in paper PMC12282863.
Results are given in words; binding and its absence hold for the method and conditions named. In cells and extracts the contact can be indirect.

Target: Plasmodium falciparum apicoplast chaperonin 60, endogenously V5-tagged (CPN60^V5-apt) (P. falciparum)
Assay: co-IP; anti-V5 (D3H8Q) antibody crosslinked to protein G Dynabeads, precipitating CPN60^V5 from sonicated extract of CPN60^V5-apt; ClpP^DEAD-Ty parasites; extraction buffer 40 mM Tris HCl pH 7.6, 75 mM KCl, 1 mM EDTA, 15% glycerol; 4°C; blotted with anti-Ty, anti-V5 and anti-aldolase

binding: no binding
B1: aldolase (P. falciparum, endogenous) (protein, UniProt Q7KQL9 1-369)
chain: MAHCTEYMNAPKKLPADVAEELATTAQKLVQAGKGILAADESTQTIKKRFDNIKLENTIENRASYRDLLFGTKGLGKFISGAILFEETLFQKNEAGVPMVNLLHNENIIPGIKVDKGLVNIPCTDEEKSTQGLDGLAERCKEYYKAGARFAKWRTVLVIDTAKGKPTDLSIHETAWGLARYASICQQNRLVPIVEPEILADGPHSIEVCAVVTQKVLSCVFKALQENGVLLEGALLKPNMVTAGYECTAKTTTQDVGFLTVRTLRRTVPPALPGVVFLSGGQSEEEASVNLNSINALGPHPWALTFSYGRALQASVLNTWQGKKENVAKAREVLLQRAEANSLATYGKYKGGAGGENAGASLYEKKYVY
